This assay deals with amyloid-β 1–42 fused to GFP (UniProt P05067). Kind of assay: affinity purification with mass spectrometry; GFP-Trap Magnetic Agarose pull-down of Aβ-EGFP (EGFP as background) from lysates of HeLa WT or TRMT61A KD cells 24 h after electroporation; 1 h at 4 °C; label-free quantification, five biological replicates.

Sequences of proteins named here, by UniProt entry; tags and fusion partners are left off. Residues count along the entry.
UniProt P05067, residues 672-713: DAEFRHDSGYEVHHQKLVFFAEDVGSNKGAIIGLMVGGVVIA
UniProt Q9BYJ9: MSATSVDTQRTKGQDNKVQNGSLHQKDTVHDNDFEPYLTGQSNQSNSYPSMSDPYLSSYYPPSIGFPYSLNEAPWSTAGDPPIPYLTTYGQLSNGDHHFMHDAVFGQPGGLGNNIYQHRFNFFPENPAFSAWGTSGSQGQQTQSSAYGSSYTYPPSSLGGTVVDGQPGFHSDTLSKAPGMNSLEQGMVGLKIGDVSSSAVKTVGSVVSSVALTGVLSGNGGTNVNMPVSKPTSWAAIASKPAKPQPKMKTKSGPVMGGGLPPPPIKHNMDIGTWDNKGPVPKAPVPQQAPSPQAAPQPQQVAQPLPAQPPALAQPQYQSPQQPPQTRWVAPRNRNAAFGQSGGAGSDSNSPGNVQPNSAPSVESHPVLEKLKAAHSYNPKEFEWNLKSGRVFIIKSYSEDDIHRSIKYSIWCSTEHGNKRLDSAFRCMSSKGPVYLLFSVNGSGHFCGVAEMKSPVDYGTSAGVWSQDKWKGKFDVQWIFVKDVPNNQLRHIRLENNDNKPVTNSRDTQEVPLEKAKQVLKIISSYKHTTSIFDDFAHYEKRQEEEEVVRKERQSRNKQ
UniProt Q7Z739: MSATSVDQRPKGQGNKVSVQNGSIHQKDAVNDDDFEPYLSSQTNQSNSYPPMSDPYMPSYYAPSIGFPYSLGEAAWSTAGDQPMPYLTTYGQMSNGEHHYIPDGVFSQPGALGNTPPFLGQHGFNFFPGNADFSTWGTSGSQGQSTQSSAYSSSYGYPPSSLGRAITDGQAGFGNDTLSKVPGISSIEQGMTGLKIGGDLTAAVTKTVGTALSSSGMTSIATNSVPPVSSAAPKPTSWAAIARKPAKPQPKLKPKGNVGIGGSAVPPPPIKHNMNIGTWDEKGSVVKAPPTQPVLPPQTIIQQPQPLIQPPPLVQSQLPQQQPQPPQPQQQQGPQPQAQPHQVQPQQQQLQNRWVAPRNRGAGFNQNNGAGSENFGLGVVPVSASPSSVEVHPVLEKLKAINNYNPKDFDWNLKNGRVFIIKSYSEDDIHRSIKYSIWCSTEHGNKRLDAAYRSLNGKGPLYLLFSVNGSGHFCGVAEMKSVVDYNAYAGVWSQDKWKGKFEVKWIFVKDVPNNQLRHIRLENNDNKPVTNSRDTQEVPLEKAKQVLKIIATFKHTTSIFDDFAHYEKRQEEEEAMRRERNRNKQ

These are yes or no findings as the source states them, for the method shown. Binding seen in cells or lysates may run through a third protein. A yes stands for co-enrichment or nearness to the bait. Other partners may have been found. No binding means not detected with the bait.

Regarding YTHDF1 (from UniProt Q9BYJ9 1-559), the binding result was “no binding”.
To YTHDF3 (from UniProt Q7Z739 1-585) belongs “no binding”.

For the origin of these results see PMC12428715.
